PubChem BioAssay AID1259317 – Drosophila RNAi Screening Center – 2017

Assay: 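Knockdowns that alter fly cell sensitivity to manganese chloride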 (primary screen)
Cell system: Drosophila S2R+ cells
Reagent: long dsRNA against Drosophila genes
Time to read-out: 5 days (4 days knockdown, then 1 day metal)
Challenge: manganese chloride added to 15 mM final for 1 day
Measured: 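Cellular ATP measured by luciferase luminescence after 4 days knockdown then 1 day of 15 mM manganese chloride; z-score averaged over three plates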
Direction: mean z-score, 3 replicates: higher = more ATP, more surviving cells under manganese
Active means: 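Active calls require an absolute mean z-score greater than 1.5, in either direction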
Meaning of the calls: active = hit: z-score beyond ±1.5 (ATP up or down); inactive = not a hit
Here is one part, drawn at random, of 418 reagents tested. 34 of them (8.1%) were called active. 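Hits are two-sided: raised or lowered ATP both count; higher z-score means more ATP and more surviving cells.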 The record does not give: the amount of reagent.

no.	gene knocked down	dsRNA	mean z-score, 3 replicates	call
1	Npc2a	DRSC00698	-0.874	inactive
2	Hgsnat	DRSC18405	-0.461	inactive
3	Hgsnat	DRSC24716	0.479	inactive
4	Hgsnat	DRSC37969	-1.06	inactive
5	Tsp42Ea	DRSC04982	1.06	inactive
6	Tsp42Ea	DRSC06792	0.862	inactive
7	Vha100-2	DRSC14152	-0.853	inactive
8	Vha100-2	DRSC29227	0.667	inactive
9	CG7300	DRSC03044	0.825	inactive
10	CG7300	DRSC28239	0.28	inactive
11	AP-1sigma	DRSC15899	0.604	inactive
12	AP-1sigma	DRSC40317	-0.356	inactive
13	CG4586	DRSC18373	-0.682	inactive
14	CG4586	DRSC34798	-1.02	inactive
15	VhaAC45	DRSC07058	1.42	inactive
16	VhaAC45	DRSC32085	0.407	inactive
17	VhaAC45	DRSC39906	0.081	inactive
18	Lamp1	DRSC03727	-0.612	inactive
19	Lamp1	DRSC31130	-1.14	inactive
20	Lamp1	DRSC31131	-1.06	inactive
21	ATP6AP2	DRSC16420	0.26	inactive
22	ATP6AP2	DRSC35549	-0.0803	inactive
23	ATP6AP2	DRSC39882	-0.0612	inactive
24	CatB	DRSC03194	-0.442	inactive
25	CatB	DRSC24516	-0.545	inactive
26	CatB	DRSC38069	-0.51	inactive
27	Vps16A	DRSC16422	0.563	inactive
28	Vps16A	DRSC36082	-0.639	inactive
29	Gba1a	DRSC21494	-0.432	inactive
30	CG6508	DRSC02963	-0.696	inactive
31	Hel25E	DRSC28348	-0.906	inactive
32	Hel25E	DRSC30679	1.4	inactive
33	Hel25E	DRSC30680	-1.1	inactive
34	VhaAC39-1	DRSC27608	-0.318	inactive
35	VhaAC39-1	DRSC31237	2.23	active
36	VhaAC39-1	DRSC31238	0.417	inactive
37	Acsl	DRSC07252	-2.01	active
38	Acsl	DRSC35814	-1.19	inactive
39	pic	DRSC16639	0.145	inactive
40	pic	DRSC31603	0.579	inactive
41	pic	DRSC31604	0.0553	inactive
42	Bace	DRSC02197	0.548	inactive
43	Bace	DRSC28723	-0.482	inactive
44	Bace	DRSC33860	-0.892	inactive
45	Sgsh	DRSC14771	-0.308	inactive
46	LManI	DRSC24754	-0.0238	inactive
47	LManI	DRSC39016	-0.161	inactive
48	LManI	DRSC41065	0.217	inactive
49	CRAT	DRSC12523	-0.675	inactive
50	CRAT	DRSC29377	0.627	inactive

The list goes on, starting with the last 6 of the part before.
no.	gene knocked down	dsRNA	mean z-score, 3 replicates	call
45	Sgsh	DRSC14771	-0.308	inactive
46	LManI	DRSC24754	-0.0238	inactive
47	LManI	DRSC39016	-0.161	inactive
48	LManI	DRSC41065	0.217	inactive
49	CRAT	DRSC12523	-0.675	inactive
50	CRAT	DRSC29377	0.627	inactive
51	CG32191	DRSC10522	-1.12	inactive
52	gb	DRSC15961	0.624	inactive
53	gb	DRSC24834	-0.0122	inactive
54	CG14767	DRSC06500	0.465	inactive
55	CG14767	DRSC28418	-0.729	inactive
56	CG7997	DRSC07052	-0.642	inactive
57	CG7997	DRSC25706	-0.721	inactive
58	AP-1gamma	DRSC18433	0.195	inactive
59	AP-1gamma	DRSC36403	-0.416	inactive
60	Mvl	DRSC16752	-0.763	inactive
61	Mvl	DRSC39671	-0.201	inactive
62	Mvl	DRSC40923	-0.113	inactive
63	CG5065	DRSC06912	0.747	inactive
64	Vha36-3	DRSC18615	2.5	active
65	Vha36-3	DRSC28636	1.92	active
66	Gbp2	DRSC06069	-0.704	inactive
67	Dhrs4	DRSC09773	-0.819	inactive
68	Arc42	DRSC14340	-0.114	inactive
69	Arc42	DRSC31950	0.189	inactive
70	Arc42	DRSC31951	2.14	active
71	Vha16-5	DRSC02986	-0.592	inactive
72	Vha16-5	DRSC35452	-0.766	inactive
73	Vha16-5	DRSC35453	-0.422	inactive
74	CG7049	DRSC08587	0.134	inactive
75	CG7049	DRSC26356	1.15	inactive
